Test [1] deals with T1, Flag-tagged Kif15 (full length, residues 1-1388) (human) (UniProt Q9NS87).
T1 sequence: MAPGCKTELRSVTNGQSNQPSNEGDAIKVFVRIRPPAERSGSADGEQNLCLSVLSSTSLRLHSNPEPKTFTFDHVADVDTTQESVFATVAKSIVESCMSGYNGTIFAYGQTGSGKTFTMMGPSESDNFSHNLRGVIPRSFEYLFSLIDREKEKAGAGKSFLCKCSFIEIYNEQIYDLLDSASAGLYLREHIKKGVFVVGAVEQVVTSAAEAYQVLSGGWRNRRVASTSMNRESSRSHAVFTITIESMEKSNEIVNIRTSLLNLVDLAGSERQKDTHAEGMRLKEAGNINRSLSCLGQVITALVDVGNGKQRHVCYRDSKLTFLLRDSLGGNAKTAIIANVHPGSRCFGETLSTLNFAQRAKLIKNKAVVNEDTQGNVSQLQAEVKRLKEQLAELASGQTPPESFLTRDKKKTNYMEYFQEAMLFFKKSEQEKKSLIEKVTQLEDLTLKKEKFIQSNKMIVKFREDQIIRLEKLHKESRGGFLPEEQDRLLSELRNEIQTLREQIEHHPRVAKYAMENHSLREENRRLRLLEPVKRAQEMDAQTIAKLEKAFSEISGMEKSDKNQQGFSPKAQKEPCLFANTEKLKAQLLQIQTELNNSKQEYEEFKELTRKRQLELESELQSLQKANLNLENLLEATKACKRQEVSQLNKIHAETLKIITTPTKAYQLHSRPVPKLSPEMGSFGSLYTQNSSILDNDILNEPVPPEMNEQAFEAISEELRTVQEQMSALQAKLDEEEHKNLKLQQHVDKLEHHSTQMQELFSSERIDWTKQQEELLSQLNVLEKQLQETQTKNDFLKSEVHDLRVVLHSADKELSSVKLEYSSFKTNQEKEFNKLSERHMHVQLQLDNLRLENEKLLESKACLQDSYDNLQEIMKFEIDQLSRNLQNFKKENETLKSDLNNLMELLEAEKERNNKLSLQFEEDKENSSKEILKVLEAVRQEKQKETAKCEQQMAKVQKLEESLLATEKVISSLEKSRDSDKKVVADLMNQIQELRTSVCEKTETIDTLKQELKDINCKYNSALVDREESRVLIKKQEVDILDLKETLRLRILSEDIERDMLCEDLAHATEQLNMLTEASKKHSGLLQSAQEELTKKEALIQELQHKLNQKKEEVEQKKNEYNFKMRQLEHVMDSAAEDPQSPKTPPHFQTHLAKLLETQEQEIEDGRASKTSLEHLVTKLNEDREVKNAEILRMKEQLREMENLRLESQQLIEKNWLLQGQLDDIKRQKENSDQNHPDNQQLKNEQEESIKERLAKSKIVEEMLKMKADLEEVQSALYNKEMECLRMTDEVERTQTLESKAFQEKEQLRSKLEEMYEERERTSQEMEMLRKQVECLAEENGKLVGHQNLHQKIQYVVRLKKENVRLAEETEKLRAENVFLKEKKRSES
As to the kind of experiment: co-IP; anti-Flag immunoprecipitation from lysates of stable Flag-Kif15 HEK293T cells synchronized in interphase; immunoblot with anti-Kif15 and anti-KBP. Background: Immunoblotting shows a protein as a band on a membrane.

For test [2], the target named is KBP-His (full-length His-tagged KBP) (human) (UniProt Q96EK5). As to the kind of experiment: SEC + other: sucrose gradient centrifugation; 80 μg of each protein alone or both in motor buffer (100mM PIPES, 2mM MgAc2, 1mM EGTA, 1mM DTT), pre-incubated 30 min on ice; Superose 6 column; 6-28% sucrose gradients, 16 h at 4°C; with or without ATP; native molecular weights calculated from Stokes radius and sedimentation coefficient; both purified.

Results are given in words; binding and its absence hold for the method and conditions named. For some assays here: Binding seen in cells or lysates may run through a third protein. Sequences can lack the tags named with a protein.

B1: KBP (endogenous) (protein, UniProt Q96EK5 1-621)
chain: MANVPWAEVCEKFQAALALSRVELHKNPEKEPYKSKYSARALLEEVKALLGPAPEDEDERPEAEDGPGAGDHALGLPAEVVEPEGPVAQRAVRLAVIEFHLGVNHIDTEELSAGEEHLVKCLRLLRRYRLSHDCISLCIQAQNNLGILWSEREEIETAQAYLESSEALYNQYMKEVGSPPLDPTERFLPEEEKLTEQERSKRFEKVYTHNLYYLAQVYQHLEMFEKAAHYCHSTLKRQLEHNAYHPIEWAINAATLSQFYINKLCFMEARHCLSAANVIFGQTGKISATEDTPEAEGEVPELYHQRKGEIARCWIKYCLTLMQNAQLSMQDNIGELDLDKQSELRALRKKELDEEESIRKKAVQFGTGELCDAISAVEEKVSYLRPLDFEEARELFLLGQHYVFEAKEFFQIDGYVTDHIEVVQDHSALFKVLAFFETDMERRCKMHKRRIAMLEPLTVDLNPQYYLLVNRQIQFEIAHAYYDMMDLKVAIADRLRDPDSHIVKKINNLNKSALKYYQLFLDSLRDPNKVFPEHIGEDVLRPAMLAKFRVARLYGKIITADPKKELENLATSLEHYKFIVDYCEKHPEAAQEIEVELELSKEMVSLLPTKMERFRTKMALT
Turning to B1, in test [1], the binding entry was “no binding (condition: cells synchronized in interphase)”.

B2: KBP-His (full-length His-tagged KBP) (natural protein, human, UniProt Q96EK5 1-621, looked up)
chain: MANVPWAEVCEKFQAALALSRVELHKNPEKEPYKSKYSARALLEEVKALLGPAPEDEDERPEAEDGPGAGDHALGLPAEVVEPEGPVAQRAVRLAVIEFHLGVNHIDTEELSAGEEHLVKCLRLLRRYRLSHDCISLCIQAQNNLGILWSEREEIETAQAYLESSEALYNQYMKEVGSPPLDPTERFLPEEEKLTEQERSKRFEKVYTHNLYYLAQVYQHLEMFEKAAHYCHSTLKRQLEHNAYHPIEWAINAATLSQFYINKLCFMEARHCLSAANVIFGQTGKISATEDTPEAEGEVPELYHQRKGEIARCWIKYCLTLMQNAQLSMQDNIGELDLDKQSELRALRKKELDEEESIRKKAVQFGTGELCDAISAVEEKVSYLRPLDFEEARELFLLGQHYVFEAKEFFQIDGYVTDHIEVVQDHSALFKVLAFFETDMERRCKMHKRRIAMLEPLTVDLNPQYYLLVNRQIQFEIAHAYYDMMDLKVAIADRLRDPDSHIVKKINNLNKSALKYYQLFLDSLRDPNKVFPEHIGEDVLRPAMLAKFRVARLYGKIITADPKKELENLATSLEHYKFIVDYCEKHPEAAQEIEVELELSKEMVSLLPTKMERFRTKMALT
notes: also called recombinant His-tagged KBP; source: E. coli BL21 (DE3), purified (Ni-NTA)
Take B2: the binding entry in test [2] is listed as “no binding”.

(Values after PMC5405935, “Role of Kif15 and its novel mitotic partner KBP in K-fiber dynamics and chromosome alignment” (PLoS ONE, 2017).)
